# Data as given in PubChem BioAssay AID1259271 (Sanger Institute, 2017)
# Test: 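Follow-up check of kinase genes for lethal pairing with a drug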 (follow-up of hits)
# Cell system: RKO colorectal cancer cells
# Reagents: single siRNA against human genes
# Challenge: anchor drug added to each siRNA well, cetuximab 5 µg/ml, trametinib 10 nM or BYL719 1 µM, compared with DMSO vehicle; exposure length not given
# Detection: 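Survival of cells relative to control pool 2 (non-targeting), replicate average, plus a synergy score for each anchor drug (trametinib 10 nM, cetuximab 5 µg/ml, BYL719 1 µM) compared with DMSO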
# Direction: synergy score with BYL719 and synergy score with cetuximab and synergy score with trametinib: higher = stronger synthetic lethality with the drug
# Active means: 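Called active if the synergy score passes 0.10 for one or more anchor drugs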
# Calls: active = synergy with at least one drug; inactive = no synergy with any drug
# This is a random part of 160 deposited reagents. Over the whole deposit, 124 (78%) got an active call. 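Each row is one of four siRNAs per gene; gene-level confirmation, requiring two siRNAs in several cell lines, is not included.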 Reagents against one gene are numbered here. Not all columns of the deposit are shown. Not stated in the record: the amount of reagent, the time to read-out.
target,reagent,synergy score with BYL719,synergy score with cetuximab,synergy score with trametinib,Outcome
"PIM1 (Pim-1 proto-oncogene, serine/threonine kinase)",1,0.0768,0.103,0.223,active
"PIM1 (Pim-1 proto-oncogene, serine/threonine kinase)",2,0.144,0.0994,0.112,active
"PIM1 (Pim-1 proto-oncogene, serine/threonine kinase)",3,0.0855,0.194,0.254,active
"PIM1 (Pim-1 proto-oncogene, serine/threonine kinase)",4,0.206,0.0897,0.312,active
BMPR2 (bone morphogenetic protein receptor type 2),1,-0.00612,0.125,0.154,active
BMPR2 (bone morphogenetic protein receptor type 2),2,0.0942,0.293,0.28,active
BMPR2 (bone morphogenetic protein receptor type 2),3,-0.119,0.0257,0.137,active
BMPR2 (bone morphogenetic protein receptor type 2),4,-0.275,0.0178,-0.00509,inactive
CHD4 (chromodomain helicase DNA binding protein 4),1,-0.0855,0.0338,0.0928,inactive
CHD4 (chromodomain helicase DNA binding protein 4),2,-0.0731,0.0971,0.168,active
CHD4 (chromodomain helicase DNA binding protein 4),3,0.0952,0.187,0.169,active
CHD4 (chromodomain helicase DNA binding protein 4),4,0.0281,0.243,0.226,active
"BRAF (B-Raf proto-oncogene, serine/threonine kinase)",1,0.3,0.164,0.189,active
"BRAF (B-Raf proto-oncogene, serine/threonine kinase)",2,0.366,0.159,0.324,active
"BRAF (B-Raf proto-oncogene, serine/threonine kinase)",3,0.294,0.205,0.283,active
"BRAF (B-Raf proto-oncogene, serine/threonine kinase)",4,0.408,0.293,0.381,active
SYK (spleen associated tyrosine kinase),1,0.272,0.277,0.317,active
SYK (spleen associated tyrosine kinase),2,0.0573,0.112,0.126,active
SYK (spleen associated tyrosine kinase),3,0.245,0.325,0.332,active
SYK (spleen associated tyrosine kinase),4,-0.0805,-0.0966,0.199,active
COASY (Coenzyme A synthase),1,0.308,0.336,0.271,active
COASY (Coenzyme A synthase),2,0.269,0.115,0.285,active
COASY (Coenzyme A synthase),3,0.0685,0.114,0.114,active
COASY (Coenzyme A synthase),4,0.0178,0.167,0.257,active
MAPKAPK2 (MAPK activated protein kinase 2),1,0.0543,0.133,0.153,active
MAPKAPK2 (MAPK activated protein kinase 2),2,0.0926,0.245,0.0515,active
MAPKAPK2 (MAPK activated protein kinase 2),3,0.0582,0.105,0.0461,active
MAPKAPK2 (MAPK activated protein kinase 2),4,0.0995,0.103,0.0296,active
GTF2H1 (general transcription factor IIH subunit 1),1,-0.045,0.0616,0.189,active
GTF2H1 (general transcription factor IIH subunit 1),2,-0.269,0.0679,0.119,active
GTF2H1 (general transcription factor IIH subunit 1),3,-0.211,-0.155,-0.138,inactive
GTF2H1 (general transcription factor IIH subunit 1),4,-0.0242,0.0517,0.212,active
CAMK2N1 (calcium/calmodulin dependent protein kinase II inhibitor 1),1,-0.0835,-0.0396,0.0823,inactive
CAMK2N1 (calcium/calmodulin dependent protein kinase II inhibitor 1),2,0.0505,0.0435,-0.124,inactive
CAMK2N1 (calcium/calmodulin dependent protein kinase II inhibitor 1),3,0.0402,0.0514,0.243,active
CAMK2N1 (calcium/calmodulin dependent protein kinase II inhibitor 1),4,-0.15,-0.0125,0.0191,inactive
NLK (nemo like kinase),1,0.0336,0.0351,0.253,active
NLK (nemo like kinase),2,0.0362,0.402,0.31,active
NLK (nemo like kinase),3,-0.192,0.147,0.13,active
NLK (nemo like kinase),4,-0.0749,0.286,0.191,active
SF3B1 (splicing factor 3b subunit 1),1,-0.0374,0.0207,0.0462,inactive
SF3B1 (splicing factor 3b subunit 1),2,0.0141,0.0505,0.0624,inactive
SF3B1 (splicing factor 3b subunit 1),3,0.0837,0.051,0.0939,inactive
SF3B1 (splicing factor 3b subunit 1),4,0.00255,0.0148,0.0152,inactive
